Source: article PMC9851200, “Multiparameter phenotypic screening for endogenous TFEB and TFE3 translocation identifies novel chemical series modulating lysosome function” (Autophagy, 2022)

How the values were obtained:
[1] = test system: SH-SY5Y cells; note: reference of the scale not given here
[2] = test system: SH-SY5Y cells; settings: human; note: reference of the scale not given here
[3] = test system: endogenous TFEB; assay: TFEB nuclear translocation, immunocytochemistry high-content imaging; assay type: cell-based
[4] = test system: endogenous TFE3; assay: TFE3 nuclear translocation, immunocytochemistry high-content imaging; assay type: cell-based
[5] = test system: SH-SY5Y cells; settings: human; remark: listed apart in the source; note: reference of the scale not given here

| Compound | DQ Intensity [1] | DQ Spot [1] | Nuclear Count [2] | TFEB % [3] [%] | TFE3 % [4] [%] | AK [5] |
| --- | --- | --- | --- | --- | --- | --- |
| Cc1cccc(Cn2ccn3c(=O)cc(N4CCOCC4)nc23)c1 [UNC10225202A] | 101.87 | 127.35 | 108.76 | 3.23 | 8.06 | 84.68 |
| COc1cc2ncnc(Nc3cccc(Br)c3)c2cc1OC.Cl [UNC10225449A] |  |  |  |  |  | 89.71 |
